From PubChem BioAssay AID540303 (National Center for Advancing Translational Sciences (NCATS), 2011)
In all, about 330,000 compounds went through this assay and about 1,000 (0.3%) were called active. Inconclusive means that the source gave no clear call. Such entries were picked first, then a sample of the others. Calls follow the shape of the dose curve; as a rule, active = well fitted inhibition curve with a large enough effect; inconclusive = small, poorly fitted or top-dose-only effect; inactive = no such curve, though single readings can be large or run the other way; tested in mouse RAW 264.7 cells. Where the call is inconclusive, the potency comes from a doubtful curve fit.

Experiment: qHTS for Inhibitors of Cell Surface uPA Generation; also: nearly all actives have a fitted effect of over 55% in size
Conditions: cell surface uPA generation assay; series mostly up to 38.3 µM
Outline: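 Murine RAW 264.7 cells are treated for 24 h with compound up to 38.3 uM final. Cell ATP, measured by ATP-Lite, remains high if blocking the uPA cascade prevents LF from reaching the cytoplasm.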
Potency is read from the fitted curve at half-maximal effect.

Row | SMILES | Potency
1 | O=C(CN1C(=O)/C(=C/c2ccc(F)cc2)SC1=S)N1CCN(CCc2ccccn2)CC1 | inconclusive: 3.98 µM [inhibitor, partial curve]
2 | CCOC(=O)N1CCN(S(=O)(=O)c2ccc(C(=O)Nc3sc4c(c3C(N)=O)CC(C)(C)NC4(C)C)cc2)CC1 | inconclusive: 5.62 µM [inhibitor, single point]
3 | Cc1ccc(Oc2ccc(S(=O)(=O)NCC(C)(C)N3CCOCC3)cc2)cc1 | inactive
4 | Cc1ccccc1-n1c(C)nnc1SCC(=O)N(C)C1CCS(=O)(=O)C1 (stereo not given) | inconclusive: 0.501 µM [inhibitor, full curve, poor fit]
5 | COc1cccc(-c2cc(C(=O)N3CCCCC3C)no2)c1 (stereo not given) | inconclusive: 25.1 µM [inhibitor, partial curve, poor fit]
6 | COC(=O)C1=C(C)NC(C)=C(C(=O)OCC(C)C)C1c1ccccc1[N+](=O)[O-] (stereo not given) | inconclusive: 12.6 µM [inhibitor, single point]
7 | O=C(CCSc1nc2ccccc2s1)N/N=C/c1c(O)ccc2ccccc12 | inconclusive: 2.82 µM [inhibitor, single point]
8 | CC(C)N(C(=O)[C@H]1C[C@H](CC(=O)NCc2ccco2)C(=O)N2CCc3c([nH]c4cc(-c5ccco5)ccc34)[C@]12C)C(C)C | inconclusive: 22.4 µM [inhibitor, single point]
9 | O=C1C(Br)=C(c2ccccc2)C(c2ccccc2)=C1c1ccccc1 | inactive
10 | O=C(CCl)NCCCN(C(=O)C(Cl)Cl)c1ccc([N+](=O)[O-])cc1 | inconclusive: 12.6 µM [inhibitor, single point]
11 | Cc1cc(C(=O)N2CCN(c3ccc([N+](=O)[O-])cc3)CC2)c(C)o1 | inconclusive: 1.41 µM [inhibitor, full curve, poor fit]
12 | Cc1cc(C(=O)OCC(=O)N(C)c2ccccc2)c2ccccc2n1 | inconclusive: 0.891 µM [inhibitor, full curve, poor fit]
13 | O=C(Cc1ccc(Cl)cc1)NNS(=O)(=O)c1ccc([N+](=O)[O-])cc1 | inactive
14 | CCn1c(=O)c2cc(C(=O)NCCCOC)sc2c2ccccc21 | active: 5.62 µM
15 | CCC(C)c1ccccc1OCCCNC1CCCC1 (stereo not given) | inconclusive: 12.6 µM [inhibitor, single point]
16 | Cc1cc(Nc2cccc(Cl)c2)c2ccccc2n1 | inconclusive: 10 µM [inhibitor, partial curve, poor fit]
17 | Nc1ncnc(Sc2ncccn2)c1[N+](=O)[O-] | inconclusive: 2.82 µM [inhibitor, full curve, poor fit]
18 | CC(=O)c1ccccc1OCC(O)CN1CCN(c2ccccn2)CC1 (stereo not given) | inactive
19 | N#Cc1ccc(NC(=S)Nc2ccccc2)cc1 | inactive
20 | CC(=O)N(C)c1ccc(NC(=S)Nc2ccc(C(C)C)cc2)cc1 | inactive
21 | Cc1cc(SCC(=O)c2ccc(O)c(O)c2)nc2ccccc12 | inactive
22 | O=C(O)c1ccccc1C(=O)Nc1nc(-c2ccc3ccccc3c2)cs1 | inconclusive: 12.6 µM [inhibitor, single point]
23 | CCC1CCC(N2CCN(c3ccc(F)cc3)CC2)CC1 (stereo not given) | inconclusive: 2.51 µM [inhibitor, full curve, poor fit]
24 | Cc1ccc(-c2cc(C(=O)N3CCCCC3)c3ccccc3n2)cc1C | inconclusive: 4.47 µM [inhibitor, partial curve, poor fit]

Row | SMILES | Potency
25 | COC(=O)[C@@]12CCCCN1[C@H](c1ccc(-c3ccc(Cl)c(Cl)c3)c(OC)c1)[C@@H]1C(=O)N(C)C(=O)[C@@H]12 | inconclusive: 10 µM [inhibitor, single point]
26 | O=C(NC(Nc1nc2ccc([N+](=O)[O-])cc2s1)(C(F)(F)F)C(F)(F)F)c1ccccc1Cl | inconclusive: 0.355 µM [inhibitor, full curve, poor fit]
27 | COc1ccc(-c2cc3ccc(OC)cc3cn2)cc1 | inconclusive: 1.78 µM [inhibitor, full curve, poor fit]
28 | Cc1ccc(C(=O)N/N=C\c2ccc(-c3ccc(Cl)cc3)o2)cn1 | inconclusive: 12.6 µM [inhibitor, single point]
29 | O=C(CC(Nc1ccc(Cl)cc1Cl)C(=O)O)c1ccccc1 (stereo not given) | inconclusive: 11.2 µM [inhibitor, partial curve, poor fit]
30 | c1ccc(-c2cnc(-c3ccccc3)nn2)cc1 | inconclusive: 4.47 µM [inhibitor, partial curve, poor fit]
31 | CC(C)OC(=O)c1cc(Cl)c(=O)n(Cc2ccc(Cl)cc2Cl)c1 | inactive
32 | CCC(C)[C@H]1COCCS(=O)(=O)N1Cc1ccc(Br)cc1 (stereo not given in full) | inconclusive: 11.2 µM [inhibitor, single point]
33 | Cc1cc(C)c2nc(N3CCN(C(=O)c4cccs4)CC3)sc2c1 | inactive
34 | COc1ccc(C(=O)Nc2ccc3c(c2)OCCO3)cc1 | inconclusive: 1.78 µM [inhibitor, partial curve]
35 | Cc1ccc(C(=O)N/N=C\c2ccc(Br)o2)o1 | inconclusive: 2 µM [inhibitor, full curve, poor fit]
36 | CCCn1nnnc1NCc1cccc(OC)c1OCC | inconclusive: 31.6 µM [inhibitor, single point]
37 | C=C1CCC2C(C)(C)[C@@H](O)CC[C@@]2(C)[C@@H]1COc1ccc2ccc(=O)oc2c1 (stereo not given in full) | inconclusive: 1.78 µM [inhibitor, partial curve, poor fit]
38 | O=C(Nc1ccon1)c1ccc(OC2CCCC2)cc1 | active: 10 µM
39 | Cc1cc(C)n(CCCNC(=O)COc2ccc([N+](=O)[O-])cc2)n1 | inactive
40 | COCCCN(C(=O)Cc1ccc(S(=O)(=O)N2CCOCC2)s1)c1c(N)n(Cc2ccccc2)c(=O)[nH]c1=O | inconclusive: 0.501 µM [inhibitor, partial curve, poor fit]
41 | Cc1cccc(CN2CCC(Oc3ccc(C(=O)N4CCCCC4)cc3)CC2)c1 | inconclusive: 4.47 µM [inhibitor, single point]
42 | Cc1cccc2sc(NNC(=O)c3cc(=O)c4ccccc4o3)nc12 | inactive
43 | O=c1oc(CCO)cc2ccc(-c3ccc4[nH]ccc4c3)cc12 | inconclusive: 7.94 µM [inhibitor, partial curve]
44 | O=C1c2ccccc2C(=O)N1CCCCN(C(=O)c1ccco1)c1ccc(Cl)cc1 | inactive
45 | O=C1NCC(O)=C1C=Nc1ccccc1O | inconclusive: 3.55 µM [inhibitor, partial curve, poor fit]
46 | c1ccc2c(-c3csc(-c4ccncc4)n3)c[nH]c2c1 | inconclusive: 3.55 µM [inhibitor, partial curve]
47 | Cc1ccc(Cn2c(CCCO)nc3ccccc32)cc1 | inactive
48 | O=C(Nc1nnc(/C=C/c2ccccc2)s1)c1ccco1 | inconclusive: 7.94 µM [inhibitor, single point]

Some of these compounds in order of SMILES length, falling.
Row | SMILES | Potency
40 | COCCCN(C(=O)Cc1ccc(S(=O)(=O)N2CCOCC2)s1)c1c(N)n(Cc2ccccc2)c(=O)[nH]c1=O | inconclusive: 0.501 µM [inhibitor, partial curve, poor fit]
46 | c1ccc2c(-c3csc(-c4ccncc4)n3)c[nH]c2c1 | inconclusive: 3.55 µM [inhibitor, partial curve]
34 | COc1ccc(C(=O)Nc2ccc3c(c2)OCCO3)cc1 | inconclusive: 1.78 µM [inhibitor, partial curve]
38 | O=C(Nc1ccon1)c1ccc(OC2CCCC2)cc1 | active: 10 µM
45 | O=C1NCC(O)=C1C=Nc1ccccc1O | inconclusive: 3.55 µM [inhibitor, partial curve, poor fit]

Next structures follow:

Row | SMILES | Potency
49 | COc1ccc(-c2coc3cc(OC)cc(O)c3c2=O)cc1 | inactive
50 | COc1ccc(NC(=S)NCCSc2ccc(Cl)cc2)c(OC)c1 | inactive
51 | OCC1(Cc2ccc(F)cc2F)CCCN(Cc2ccc(Cl)cc2)C1 (stereo not given) | inconclusive: 0.501 µM [inhibitor, full curve, poor fit]
52 | Nc1c(C(=O)Nc2ccc3c(c2)OCCO3)nnn1Cc1ccccc1 | inconclusive: 12.6 µM [inhibitor, single point]
53 | Cc1cc(C)c(NS(=O)(=O)c2ccc3c(c2)NC(=O)CCS3)c(C)c1 | inactive
54 | CC[C@@]1(c2ccccc2OC)C(=O)N(C(=O)OC)N1C(=O)OC | inconclusive: 11.2 µM [inhibitor, partial curve, poor fit]
55 | CC(C)OC(=O)NCCOC(=O)Nc1ccc(Cl)cc1 | inactive
56 | BrC(=C\c1ccccc1)/C=N/n1cnnc1 | inconclusive: 1 µM [inhibitor, partial curve, poor fit]
57 | CCOCCCN(C)C1CCN(C(=O)c2oc3ccccc3c2NC(=O)Cc2ccc(F)cc2)CC1 | inactive
58 | Cc1csc(N2CCCC2c2nc3cc(C(F)(F)F)ccc3n2CCOCCO)n1 (stereo not given) | inconclusive: 1.58 µM [inhibitor, full curve, poor fit]
59 | CCCCSc1ccc2nc(-c3ccc(C#N)cc3)cn2c1 | inactive
60 | O=C(Nc1ccc(F)c(Cl)c1)c1nsc(Cl)c1Cl | inconclusive: 8.91 µM [inhibitor, single point]
61 | COC(=O)COc1cc(OCC(=O)OC)c2c(-c3ccccc3)cc(=O)oc2c1 | inconclusive: 12.6 µM [inhibitor, partial curve, poor fit]
62 | COc1ccc(NC(=O)COc2cccc3c2OC(C)(C)C3)cc1OC | inconclusive: 7.94 µM [inhibitor, partial curve, poor fit]
63 | O=C(Nc1cccnc1)c1ccc([N+](=O)[O-])o1 | inconclusive: 6.31 µM [inhibitor, partial curve, poor fit]
64 | COc1c(Br)cc(C(N)=O)cc1OCc1ccccc1 | inactive
65 | O=C(Nc1ccc2c(c1)CCC2)c1ccccc1F | inconclusive: 11.2 µM [inhibitor, single point]
66 | CCOc1ccc(CCNC(=O)CSc2cc(=O)n(CC)c3ccccc23)cc1OCC | inactive
67 | O=C(/C=C/c1ccccc1)Nc1cccc(C(=O)NC2CC2)c1 | active: 12.6 µM
68 | CSc1ccc(S(=O)(=O)Nc2ccc(F)cc2)cc1 | inactive
69 | O=[N+]([O-])c1cc([N+](=O)[O-])c2nonc2c1Nc1ccccc1O | active: 5.62 µM
70 | COc1ccc(OC)c(CCNC(=O)CSc2ccsc2[N+](=O)[O-])c1 | inconclusive: 2.82 µM [inhibitor, full curve, poor fit]
